In US4451485A, “Treatment of cardio-vascular diseases with 3-(2,2,2-trimethylhydrazinium) propionate dihydrate” (Institu Organicheskogo Sinteza Akademii Nauk Latviiskoi SSR, priority 1981, dated 1984):

Key:
[1] = Threshold of electric fibrillation of auricles and ventricles in cats; type: in vivo
Description: Furthermore, the preparation according to the present invention was tested for specific antiarrhythmic and antianginal effects. […] The effect of the novel pharmaceutical composition according to the present invention was studied on cats weighing 2.9-3.6 kg. The preparation was used as a 10% aqueous solution containing 3-(2,2,2-trimethylhydrazinium)propionate for the determination of the threshold value of electric fibrillation of auricles and ventricles. Under artificial respiration after opening of the thorax and pericardium, needle-like electrodes were applied to the right auricula and apex of the left ventricle. The irritation was effected by square pulses of 1 m.s., 15 st/s.
For the comparison of preparations, as the criterion of the range of therapeutic effect, there was used the ratio of the half-lethal dose to the half-effective dose (LD50 /ED50) which was referred to as the antiarrhythmic index. […] The comparative study of the antiarrhythmic activity of pharmaceutical preparations using an acotine model of arrhythmia was effected in experiments on white rats weighing 190-240 g. The test preparations were administered intraperitoneally 10-40 minutes before administration of aconitine.

[2] = Strophanthin arrhythmia in guinea pigs (450 μg/kg); conditions: guinea pig, in vivo
Description: As the third model of arrhythmia, there was used strophanthin arrhythmia in guinea pigs. […] Against the background of arrhythmia the test preparations were administered intravenously.

[3] = in vivo; design: species or system white mice; conditions: mouse
Text: Acute toxicity of pharmaceutical compositions in
experiments on white mice at intravenous administration.
Aconitine ar- at intrave-

CCN(CC)CC(=O)Nc1c(C)cccc1C [Lidocain]
ED50 ([1]; Felis catus, iv, read-out: ED50, electric irritation of cat's heart): 3 ± 0.3 mg/kg
Antiarrhythmic index LD50/ED50, electric irritation of cat's heart ([1]; intravenous): 13
Antiarrhythmic index LD50/ED50, Strophanthin arrhythmia in guinea pigs [2]: 11
Toxicity relative to the composition of the invention [3]: substantially higher toxicity
LD50 ([3]; white mice, intravenous (Table 5), read-out: Acute toxicity, LD50): 40 mg/kg
